For 22 targets, log2 fold change results are on record in the supplement of paper PMC10849652.

By UniProt entry, the sequences of proteins in these tests, tags left out. Where a name states a change or a piece, a line headed by the entry shows the natural chain unless it says otherwise.
UniProt P56945: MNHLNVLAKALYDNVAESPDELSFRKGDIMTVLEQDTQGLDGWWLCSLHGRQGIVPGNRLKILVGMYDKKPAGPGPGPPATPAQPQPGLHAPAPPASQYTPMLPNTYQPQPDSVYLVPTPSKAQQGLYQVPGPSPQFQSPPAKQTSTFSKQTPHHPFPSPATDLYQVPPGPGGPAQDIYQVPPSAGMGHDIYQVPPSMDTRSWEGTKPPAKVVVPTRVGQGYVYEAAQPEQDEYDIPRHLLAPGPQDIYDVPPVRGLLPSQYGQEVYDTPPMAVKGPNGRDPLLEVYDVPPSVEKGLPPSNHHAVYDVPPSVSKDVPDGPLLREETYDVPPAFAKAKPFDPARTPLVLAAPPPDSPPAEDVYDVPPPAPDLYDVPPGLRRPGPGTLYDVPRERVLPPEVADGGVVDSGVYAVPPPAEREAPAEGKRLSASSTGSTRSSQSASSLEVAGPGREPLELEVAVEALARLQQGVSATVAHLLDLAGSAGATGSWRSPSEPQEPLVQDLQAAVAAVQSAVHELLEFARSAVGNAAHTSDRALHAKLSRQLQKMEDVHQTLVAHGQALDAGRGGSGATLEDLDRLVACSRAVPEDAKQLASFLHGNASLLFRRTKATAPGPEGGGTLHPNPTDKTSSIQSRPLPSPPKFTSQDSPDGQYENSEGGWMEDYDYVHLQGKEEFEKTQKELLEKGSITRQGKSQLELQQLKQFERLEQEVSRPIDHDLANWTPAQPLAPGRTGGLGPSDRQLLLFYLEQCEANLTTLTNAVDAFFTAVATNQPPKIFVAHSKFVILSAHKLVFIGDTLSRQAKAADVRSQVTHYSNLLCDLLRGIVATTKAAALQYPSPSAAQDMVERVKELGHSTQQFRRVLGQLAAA
UniProt P07738: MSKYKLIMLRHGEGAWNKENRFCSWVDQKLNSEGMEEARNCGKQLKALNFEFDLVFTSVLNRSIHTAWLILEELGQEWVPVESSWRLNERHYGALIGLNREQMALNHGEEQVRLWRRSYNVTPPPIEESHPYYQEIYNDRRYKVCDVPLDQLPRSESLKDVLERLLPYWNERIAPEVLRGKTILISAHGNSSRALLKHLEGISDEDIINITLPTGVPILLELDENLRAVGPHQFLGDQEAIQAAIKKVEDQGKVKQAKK
UniProt Q9NUP1: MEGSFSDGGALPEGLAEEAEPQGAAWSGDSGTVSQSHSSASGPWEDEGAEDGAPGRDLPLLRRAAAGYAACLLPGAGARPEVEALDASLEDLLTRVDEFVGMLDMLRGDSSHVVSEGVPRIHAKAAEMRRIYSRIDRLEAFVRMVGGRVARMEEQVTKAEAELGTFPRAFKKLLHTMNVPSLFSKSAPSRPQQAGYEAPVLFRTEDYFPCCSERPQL
UniProt Q8TD16, whole entry, looked up: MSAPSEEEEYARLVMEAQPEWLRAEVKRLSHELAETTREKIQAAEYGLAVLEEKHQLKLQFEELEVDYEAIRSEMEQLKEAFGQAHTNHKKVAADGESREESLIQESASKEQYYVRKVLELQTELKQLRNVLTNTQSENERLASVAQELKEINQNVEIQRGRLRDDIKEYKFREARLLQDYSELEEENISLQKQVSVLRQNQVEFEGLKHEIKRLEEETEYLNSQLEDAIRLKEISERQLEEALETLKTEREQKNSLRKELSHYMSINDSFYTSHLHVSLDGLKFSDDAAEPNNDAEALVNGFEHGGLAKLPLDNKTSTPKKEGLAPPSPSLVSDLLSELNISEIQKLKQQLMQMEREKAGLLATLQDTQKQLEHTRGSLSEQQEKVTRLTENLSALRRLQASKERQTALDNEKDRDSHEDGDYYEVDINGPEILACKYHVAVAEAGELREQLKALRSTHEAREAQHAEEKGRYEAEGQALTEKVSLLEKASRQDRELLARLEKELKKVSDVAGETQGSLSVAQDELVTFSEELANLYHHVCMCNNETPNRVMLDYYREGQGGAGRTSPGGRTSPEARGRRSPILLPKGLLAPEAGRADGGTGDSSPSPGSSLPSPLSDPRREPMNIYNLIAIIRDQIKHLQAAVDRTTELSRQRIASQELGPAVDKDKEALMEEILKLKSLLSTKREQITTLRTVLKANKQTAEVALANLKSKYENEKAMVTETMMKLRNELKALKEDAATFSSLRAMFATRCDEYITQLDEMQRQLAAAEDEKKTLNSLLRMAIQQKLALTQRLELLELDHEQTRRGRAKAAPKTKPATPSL
UniProt P46379: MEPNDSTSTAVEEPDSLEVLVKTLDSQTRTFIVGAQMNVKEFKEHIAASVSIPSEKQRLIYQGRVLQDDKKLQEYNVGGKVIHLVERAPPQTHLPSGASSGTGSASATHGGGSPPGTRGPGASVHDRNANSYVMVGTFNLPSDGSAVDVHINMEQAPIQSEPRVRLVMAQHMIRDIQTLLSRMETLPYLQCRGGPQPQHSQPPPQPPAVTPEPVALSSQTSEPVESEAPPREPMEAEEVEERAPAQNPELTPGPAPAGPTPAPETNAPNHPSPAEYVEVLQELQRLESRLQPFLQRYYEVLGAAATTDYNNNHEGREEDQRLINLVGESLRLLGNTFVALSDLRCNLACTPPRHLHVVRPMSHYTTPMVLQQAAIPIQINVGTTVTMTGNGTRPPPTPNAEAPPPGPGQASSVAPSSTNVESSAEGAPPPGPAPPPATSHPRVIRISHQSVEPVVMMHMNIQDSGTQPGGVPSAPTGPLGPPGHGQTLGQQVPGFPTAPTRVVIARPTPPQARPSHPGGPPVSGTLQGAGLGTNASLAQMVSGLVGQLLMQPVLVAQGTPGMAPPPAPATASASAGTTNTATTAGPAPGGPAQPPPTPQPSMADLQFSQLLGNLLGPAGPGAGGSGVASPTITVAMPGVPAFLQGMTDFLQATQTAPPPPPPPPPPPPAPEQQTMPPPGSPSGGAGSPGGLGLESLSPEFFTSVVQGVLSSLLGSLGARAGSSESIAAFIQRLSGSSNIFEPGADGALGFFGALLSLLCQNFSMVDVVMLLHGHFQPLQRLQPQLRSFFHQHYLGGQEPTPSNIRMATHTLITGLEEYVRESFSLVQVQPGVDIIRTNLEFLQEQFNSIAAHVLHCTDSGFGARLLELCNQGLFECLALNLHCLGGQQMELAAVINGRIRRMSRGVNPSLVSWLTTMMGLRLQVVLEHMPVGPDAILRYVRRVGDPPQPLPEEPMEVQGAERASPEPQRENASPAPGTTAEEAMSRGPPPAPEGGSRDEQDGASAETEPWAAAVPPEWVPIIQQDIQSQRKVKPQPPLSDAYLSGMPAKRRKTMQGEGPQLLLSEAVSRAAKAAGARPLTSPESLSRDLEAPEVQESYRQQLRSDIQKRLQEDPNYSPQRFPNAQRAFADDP
UniProt Q8TDN6: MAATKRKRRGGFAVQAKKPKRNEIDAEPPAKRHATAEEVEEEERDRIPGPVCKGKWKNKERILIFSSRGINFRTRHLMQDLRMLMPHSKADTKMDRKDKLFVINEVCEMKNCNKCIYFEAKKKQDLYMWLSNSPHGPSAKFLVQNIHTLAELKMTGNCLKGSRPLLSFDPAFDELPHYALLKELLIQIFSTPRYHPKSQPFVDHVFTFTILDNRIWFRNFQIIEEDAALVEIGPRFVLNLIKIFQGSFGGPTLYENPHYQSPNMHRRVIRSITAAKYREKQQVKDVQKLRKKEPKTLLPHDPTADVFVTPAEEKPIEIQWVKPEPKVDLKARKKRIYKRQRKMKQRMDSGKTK
UniProt Q9Y679: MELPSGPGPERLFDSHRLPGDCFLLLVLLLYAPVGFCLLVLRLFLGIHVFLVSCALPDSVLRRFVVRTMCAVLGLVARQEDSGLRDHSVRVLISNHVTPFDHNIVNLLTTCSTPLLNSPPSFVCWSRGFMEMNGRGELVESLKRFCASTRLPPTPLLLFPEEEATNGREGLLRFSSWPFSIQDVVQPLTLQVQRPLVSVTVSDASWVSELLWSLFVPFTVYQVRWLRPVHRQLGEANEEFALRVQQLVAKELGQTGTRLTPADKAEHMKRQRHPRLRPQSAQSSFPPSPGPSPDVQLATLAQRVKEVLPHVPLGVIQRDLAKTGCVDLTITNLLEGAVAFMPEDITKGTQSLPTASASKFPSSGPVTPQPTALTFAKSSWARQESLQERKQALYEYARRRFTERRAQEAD
UniProt P15291: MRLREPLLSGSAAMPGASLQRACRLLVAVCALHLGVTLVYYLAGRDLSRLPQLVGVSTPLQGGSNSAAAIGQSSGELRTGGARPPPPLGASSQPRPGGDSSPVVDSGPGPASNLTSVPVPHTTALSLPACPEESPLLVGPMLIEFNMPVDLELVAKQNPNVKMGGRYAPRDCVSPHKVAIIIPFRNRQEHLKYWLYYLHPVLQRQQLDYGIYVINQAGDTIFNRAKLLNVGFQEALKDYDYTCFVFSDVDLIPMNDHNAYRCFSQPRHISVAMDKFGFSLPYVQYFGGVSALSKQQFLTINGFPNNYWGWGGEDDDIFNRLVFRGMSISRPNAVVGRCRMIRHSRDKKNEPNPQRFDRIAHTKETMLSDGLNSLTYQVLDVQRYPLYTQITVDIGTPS
UniProt Q13490, whole entry, looked up: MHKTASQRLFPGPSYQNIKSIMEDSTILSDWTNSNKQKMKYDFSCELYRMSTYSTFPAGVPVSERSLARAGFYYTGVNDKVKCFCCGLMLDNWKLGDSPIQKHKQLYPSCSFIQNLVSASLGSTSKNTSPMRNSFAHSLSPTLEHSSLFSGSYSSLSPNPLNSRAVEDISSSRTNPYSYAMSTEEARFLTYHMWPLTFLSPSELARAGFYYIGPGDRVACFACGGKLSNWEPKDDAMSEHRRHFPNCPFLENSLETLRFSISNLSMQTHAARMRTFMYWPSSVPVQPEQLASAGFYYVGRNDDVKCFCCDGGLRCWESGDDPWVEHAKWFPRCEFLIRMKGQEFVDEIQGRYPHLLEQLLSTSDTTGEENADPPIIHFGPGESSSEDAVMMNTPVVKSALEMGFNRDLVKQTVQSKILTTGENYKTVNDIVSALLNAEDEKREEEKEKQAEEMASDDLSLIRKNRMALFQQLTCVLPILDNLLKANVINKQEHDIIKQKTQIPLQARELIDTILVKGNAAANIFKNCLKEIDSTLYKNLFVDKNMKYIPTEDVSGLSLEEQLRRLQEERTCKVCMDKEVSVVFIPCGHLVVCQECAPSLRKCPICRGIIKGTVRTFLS
UniProt Q96GX2: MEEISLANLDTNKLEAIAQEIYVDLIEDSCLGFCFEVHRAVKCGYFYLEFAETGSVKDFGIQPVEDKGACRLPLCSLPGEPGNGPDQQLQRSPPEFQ
UniProt Q8WWM7: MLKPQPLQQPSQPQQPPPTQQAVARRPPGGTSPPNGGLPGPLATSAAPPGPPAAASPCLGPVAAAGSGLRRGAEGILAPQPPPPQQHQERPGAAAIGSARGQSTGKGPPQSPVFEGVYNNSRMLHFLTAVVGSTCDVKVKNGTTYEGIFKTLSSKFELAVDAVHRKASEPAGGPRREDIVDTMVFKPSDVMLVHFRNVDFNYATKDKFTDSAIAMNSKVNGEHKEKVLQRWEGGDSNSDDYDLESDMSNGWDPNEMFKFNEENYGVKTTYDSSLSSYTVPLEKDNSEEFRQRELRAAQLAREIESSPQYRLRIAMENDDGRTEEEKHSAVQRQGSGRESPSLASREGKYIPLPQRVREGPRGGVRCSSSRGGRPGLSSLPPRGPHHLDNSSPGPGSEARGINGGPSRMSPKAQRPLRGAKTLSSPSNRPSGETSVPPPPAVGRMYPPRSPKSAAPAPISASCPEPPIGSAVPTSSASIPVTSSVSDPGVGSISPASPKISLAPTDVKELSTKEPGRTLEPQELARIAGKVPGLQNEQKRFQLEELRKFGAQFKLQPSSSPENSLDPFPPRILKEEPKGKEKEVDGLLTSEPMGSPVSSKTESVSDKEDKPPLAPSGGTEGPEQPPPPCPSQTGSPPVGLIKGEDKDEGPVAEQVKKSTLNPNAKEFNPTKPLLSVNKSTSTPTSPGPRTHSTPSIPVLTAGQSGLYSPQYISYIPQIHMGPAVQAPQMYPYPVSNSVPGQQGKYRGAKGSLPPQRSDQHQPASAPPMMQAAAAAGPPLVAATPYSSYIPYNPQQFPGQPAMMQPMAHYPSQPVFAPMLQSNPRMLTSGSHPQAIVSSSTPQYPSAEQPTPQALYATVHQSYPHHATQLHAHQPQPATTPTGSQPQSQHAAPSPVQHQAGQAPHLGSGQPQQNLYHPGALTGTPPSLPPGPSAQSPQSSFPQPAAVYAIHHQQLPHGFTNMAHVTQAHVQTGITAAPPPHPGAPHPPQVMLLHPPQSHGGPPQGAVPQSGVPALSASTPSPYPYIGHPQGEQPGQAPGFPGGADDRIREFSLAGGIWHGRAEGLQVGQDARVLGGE
UniProt O94766: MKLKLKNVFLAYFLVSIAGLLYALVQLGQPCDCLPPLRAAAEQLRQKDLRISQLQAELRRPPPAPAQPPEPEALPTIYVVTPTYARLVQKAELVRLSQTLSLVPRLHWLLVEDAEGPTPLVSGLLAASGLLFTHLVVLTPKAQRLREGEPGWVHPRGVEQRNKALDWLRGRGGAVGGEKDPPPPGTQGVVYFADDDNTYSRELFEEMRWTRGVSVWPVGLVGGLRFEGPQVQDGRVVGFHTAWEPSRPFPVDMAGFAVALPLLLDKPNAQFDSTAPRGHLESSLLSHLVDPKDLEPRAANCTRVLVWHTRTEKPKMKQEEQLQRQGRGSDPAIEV

The list shows a part of the results.

Compound in the assay: CC(C)(C)Cn1c(N)nc2ccc(-c3[nH]c(C(C)(C)C)nc3-c3ccc(F)cc3)nc21 [ralimetinib]
Briefly: log2 fold change, soluble protein after heating vs DMSO (PISA); higher = thermal stabilisation; K562 cells, 10 uM, 30 min; active = over 0.2 and 3.5 SD of the protein, either way, in both replicates (recomputed). In a few lines:
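Values are thermal stability changes relative to control samples and are taken from duplicates. They are stated as log2 fold changes. Before quantification by TMTpro 16plex LC-MS/MS with equalised channel sums, K562 cells at 2×10^6 cells/mL were treated with 10 μM compound for 30 min, heated in aliquots for 3 min across 48°C-58°C, pooled, extracted in PBS with 0.5% NP-40 at 4°C, and centrifuged at 21,000xg for 90 min to give the soluble supernatant.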
ATXN2 (UniProt Q99700): the log2 fold change is inactive: 0.009. As for BCAR1 isoform 6 (UniProt P56945), the figure is inactive: 0.014; as for BPGM (UniProt P07738), inactive: 0.027; as for BRAP (UniProt Q7Z569), inactive: 0.16.

Consider BAX isoform 2 (UniProt Q07812), for which the log2 fold change was inactive: -0.015.

In the case of BPHL (UniProt Q86WA6), the log2 fold change is inactive: -0.045. As for BCL2L2 isoform 2 (UniProt Q92843), the figure is inactive: 0.068. As for BACH1 (UniProt O14867), the figure is inactive: -0.008. As for BAIAP2L1 (UniProt Q9UHR4), the figure is inactive: -0.058. Consider BCCIP (UniProt Q9P287), for which the log2 fold change is inactive: -0.005.

Take BLOC1S4 (UniProt Q9NUP1): the log2 fold change was inactive: -0.096. Regarding BICD2 isoform 2 (UniProt Q8TD16), the log2 fold change is inactive: 0.078.

For the target BAG6 isoform 3 (UniProt P46379), the log2 fold change is inactive: 0.026. As for BRIX1 (UniProt Q8TDN6), the figure is inactive: 0.133; as for AUP1 (UniProt Q9Y679), inactive: 0.007. On to B4GALT1 (UniProt P15291), for which the log2 fold change is inactive: 0.094.

On to BIRC2 (UniProt Q13490), for which the log2 fold change was inactive: -0.051. Consider ATXN7L3B (UniProt Q96GX2), for which the log2 fold change was inactive: -0.095. As for ATXN2L (UniProt Q8WWM7), the figure is inactive: -0.014. Turning to BORCS5 (UniProt Q969J3), the log2 fold change is inactive: -0.043. As for B3GAT3 (UniProt O94766), the figure is inactive: -0.053; as for BNIP2 (UniProt J3KN59), inactive: -0.003.
